# Data as given in patent US20020010154A1, “Compositions comprising cyclodextrin” (priority 2000, published 2002).
# Some of these results come from one statement about several compounds together.
# Assay: Elevation of surfactant surface tension in the presence of cyclodextrin
# Format: physicochemical
# Conditions: in the presence of a typical cyclodextrin like hydroxypropyl beta-cyclodextrin and methylated beta-cyclodextrin; strongly interactive
row,Molecule,elevation in surface tension [%]
1,CCCCCCCCCCCCOS(=O)(=O)[O-].[Na+] [Sodium dodecyl sulfate],> 10
2,dodecanolpoly(6)ethoxylate,> 10
